Results published in paper PMC10320016.
These are yes or no findings as the source states them, for the method shown. Binding seen in cells or lysates may run through a third protein. Some entries that bind do so weakly or less than the wild type.

Biological target: CRAF fused at its N-terminus to the EGFP (UniProt P04049)
Assay: co-IP

binding: binds
Substance: epidermal growth factor receptor (from UniProt P00533 25-1210)
